# No constants are given. Whether binding was seen depends on the method and setting. In cells and extracts the contact can be indirect. For some assays here: Binding can be weak; no strength is given. For some assays here: Tags and fused reporters may be left off the sequences shown.
# T1: COX11-FLAG (human) (UniProt Q9Y6N1)
# T1 sequence: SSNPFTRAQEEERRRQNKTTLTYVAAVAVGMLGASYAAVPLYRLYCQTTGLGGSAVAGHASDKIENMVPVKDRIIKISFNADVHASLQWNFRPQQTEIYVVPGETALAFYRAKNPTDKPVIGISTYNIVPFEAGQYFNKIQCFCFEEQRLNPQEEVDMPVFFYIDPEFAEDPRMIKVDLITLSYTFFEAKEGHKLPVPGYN
# T2: COX17-FLAG (human) (UniProt Q14061)
# T2 sequence: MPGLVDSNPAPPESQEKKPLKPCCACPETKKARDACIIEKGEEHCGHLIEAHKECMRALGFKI
# T3: PET191-FLAG (human) (UniProt Q86WW8)
# T3 sequence: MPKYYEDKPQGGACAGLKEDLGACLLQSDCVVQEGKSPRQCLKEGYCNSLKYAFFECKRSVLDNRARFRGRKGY
# T4: COX11 C219D-FLAG (human) (UniProt Q9Y6N1)
# T4 sequence: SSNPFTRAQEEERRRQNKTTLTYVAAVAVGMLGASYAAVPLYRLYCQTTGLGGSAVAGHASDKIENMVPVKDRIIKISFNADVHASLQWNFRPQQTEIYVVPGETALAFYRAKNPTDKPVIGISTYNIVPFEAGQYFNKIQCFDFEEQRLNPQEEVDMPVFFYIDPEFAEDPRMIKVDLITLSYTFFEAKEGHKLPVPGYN
# T5: COX16-FLAG (human) (UniProt Q9P0S2)
# T5 sequence: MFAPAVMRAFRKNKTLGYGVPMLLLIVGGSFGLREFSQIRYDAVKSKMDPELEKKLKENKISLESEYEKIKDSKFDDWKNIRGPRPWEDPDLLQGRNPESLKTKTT
# T6: PET191(C30A, C41A)-FLAG (human) (UniProt Q86WW8)
# T6 sequence: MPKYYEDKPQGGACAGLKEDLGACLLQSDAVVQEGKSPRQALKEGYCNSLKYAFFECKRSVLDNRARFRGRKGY
# T7: SCO1-FLAG (human) (UniProt O75880)
# T7 sequence: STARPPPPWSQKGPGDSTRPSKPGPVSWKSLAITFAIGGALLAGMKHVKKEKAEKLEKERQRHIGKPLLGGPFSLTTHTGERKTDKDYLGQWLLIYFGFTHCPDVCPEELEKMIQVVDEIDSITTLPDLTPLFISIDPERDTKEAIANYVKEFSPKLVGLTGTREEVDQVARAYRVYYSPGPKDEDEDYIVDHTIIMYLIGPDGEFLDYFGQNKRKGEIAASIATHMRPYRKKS
# T8: SCO2-FLAG (human) (UniProt O43819)
# T8 sequence: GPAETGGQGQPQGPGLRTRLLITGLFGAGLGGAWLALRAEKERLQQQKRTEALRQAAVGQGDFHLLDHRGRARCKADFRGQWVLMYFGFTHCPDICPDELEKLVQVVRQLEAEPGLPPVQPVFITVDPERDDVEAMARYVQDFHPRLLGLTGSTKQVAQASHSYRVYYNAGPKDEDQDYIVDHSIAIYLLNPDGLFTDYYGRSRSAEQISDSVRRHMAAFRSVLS
# How the values were obtained:
# COX11-FLAG (human) [1] = target: T1, COX11-FLAG (human); experiment: co-IP; stable interactions: mitochondria without crosslinker (DMSO vehicle), extracted in PBS, 0.4% DDM, anti-FLAG beads 4 h at 4 C, five washes in PBS 0.05% DDM, immunoblotting; for COX11-COX19 also after pre-incubation of mitochondria with 5 mM GSH
# COX17-FLAG (human) = target: T2, COX17-FLAG (human); experiment: as above
# PET191-FLAG (human) [2] = target: T3, PET191-FLAG (human); experiment: as above
# COX11 C219D-FLAG (human) = target: T4, COX11 C219D-FLAG (human); experiment: cross-linking + co-IP; transient interactions: mitochondria treated with 1 mM DSP 1.5 h at 4 C (DMSO as vehicle control), quenched with 10 mM Tris-HCl, extracted in PBS, 0.4% DDM, anti-FLAG beads, immunoblotting for 13 candidate proteins; also in KO backgrounds and after chloramphenicol treatment
# COX11-FLAG (human) [3] = target: T1, COX11-FLAG (human); experiment: as above
# COX16-FLAG (human) = target: T5, COX16-FLAG (human); experiment: as above
# [4] = target: T6, PET191(C30A, C41A)-FLAG (human); experiment: as above
# PET191-FLAG (human) [5] = target: T3, PET191-FLAG (human); experiment: as above
# SCO1-FLAG (human) = target: T7, SCO1-FLAG (human); experiment: as above
# SCO2-FLAG (human) = target: T8, SCO2-FLAG (human); experiment: as above
# COX10-FLAG (human) = experiment: as above
binding (COX11-FLAG (human) [1]),binding (COX17-FLAG (human)),binding (PET191-FLAG (human) [2]),binding (COX11 C219D-FLAG (human)),binding (COX11-FLAG (human) [3]),binding (COX16-FLAG (human)),binding [4],binding (PET191-FLAG (human) [5]),binding (SCO1-FLAG (human)),binding (SCO2-FLAG (human)),binding (COX10-FLAG (human)),Molecule
binds,binds,binds,binds,binds,binds,binds,binds,binds,binds,–,COX10 (endogenous) (human (endogenous in HEK293T)) (enzyme)
–,–,–,–,–,–,–,–,–,–,no binding,"SURF1 (protein, UniProt Q15526 1-300) MAAVAALQLGLRAAGLGRAPASAAWRSVLRVSPRPGVAWRPSRCGSSAAEASATKAEDDSFLQWVLLLIPVTAFGLGTWQVQRRKWKLNLIAELESRVLAEPVPLPADPMELKNLEYRPVKVRGCFDHSKELYMMPRTMVDPVREAREGGLISSSTQSGAYVVTPFHCTDLGVTILVNRGFVPRKKVNPETRQKGQIEGEVDLIGMVRLTETRQPFVPENNPERNHWHYRDLEAMARITGAEPIFIDANFQSTVPGGPIGGQTRVTLRNEHLQYIVTWYGLSAATSYLWFKKFLRGTPGV"

# From article PMC9232578
